The subject of experiment [1] is HEK293. Briefly: IC50 for inhibition of ZIKV NS1 production. As to the method:
(§1)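 HEK293 cells in 1536-well plates were pre-treated with compound for 1 h, infected with ZIKV (MOI 1) for 24 h, and NS1 antigen (intra- plus extracellular) was measured by TR-FRET. Confirmation used 11-point 1:3 dilutions, and IC50 and maximal inhibition were fitted in GraphPad Prism.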

Experiment [2] concerns HEK293. Nature of the experiment: cytotoxicity IC50 (ATP content, uninfected cells); higher = less cytotoxic. The following applies: infection: none.
Experiment [3] deals with HEK293. Briefly: maximal inhibition of ZIKV NS1 production (% inhibition); higher = stronger antiviral effect. The method, then: as §1

As for `O=C1NC(=O)c2c1c(-c1ccccc1)cc1[nH]c3ccc(O)cc3c21`, the IC50 with HEK293 [1] came to 4.7 µM. The “cytotoxicity IC50” value in the experiment with HEK293 [2] worked out at 3.6 µM. In the experiment with HEK293 [3], this molecule showed a maximal inhibition of 97.

One may read the IC50 as the concentration at which inhibition is half-maximal.
